# Experimental data from PubChem BioAssay AID540336 (Broad Institute, 2011).
# By UniProt entry, the sequences of proteins in these tests, tags left out.
# UniProt Q5AAJ8, whole entry, looked up: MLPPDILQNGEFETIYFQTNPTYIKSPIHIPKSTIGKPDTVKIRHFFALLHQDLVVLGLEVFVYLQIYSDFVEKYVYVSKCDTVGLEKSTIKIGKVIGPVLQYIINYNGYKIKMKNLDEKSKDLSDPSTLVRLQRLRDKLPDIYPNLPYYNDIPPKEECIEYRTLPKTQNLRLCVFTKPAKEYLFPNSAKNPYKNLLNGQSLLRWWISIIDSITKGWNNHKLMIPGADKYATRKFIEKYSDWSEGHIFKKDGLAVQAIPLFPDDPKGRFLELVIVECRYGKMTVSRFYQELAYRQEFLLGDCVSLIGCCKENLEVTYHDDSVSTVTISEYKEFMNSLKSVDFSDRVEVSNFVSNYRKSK
# About 520 (0.16%) of roughly 330,000 compounds were called active. This list was built around the results that the source calls inconclusive (neither active nor inactive); the mix of calls is not that of the screen.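 Rule for the calls: active = inhibition of at least 50% in every replicate; inconclusive = best replicate reaches 50% inhibition but some replicates fall short; inactive = the rest.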
# Target: Histone acetyltransferase RTT109 (Candida albicans (strain SC5314 / ATCC MYA-2876)) (UniProt Q5AAJ8)
# Assay: Rtt109-Vps75 histone acetyltransferase blockade – biochemical, ThioGlo CoA-SH fluorescence, plate reader, primary screen (AID 540336)
# Settings: purified Rtt109/Vps75, ThioGlo CoA-SH fluorescence, 4 h; at 34.9 µM; stronger effect = higher value
row,SMILES,inhibition
1,CCCCCCCCCCCCCCCC(=O)OC(CC(=O)O)C[N+](C)(C)C (stereo unspecified),inconclusive: 51.4%
2,O=[N+]([O-])c1ccc(OCCO)c(P(=O)(c2ccccc2)c2ccccc2)c1,inconclusive: 34.3%
3,Cc1c(C(=O)N2CCC(Cc3ccccc3)CC2)sc2ncnc(N3CCC(C)CC3)c12,inactive: -2.01%
4,Cc1nn(C)c(C)c1C1C(C#N)=C(N)OC2=C1C(=O)CCC2 (stereo unspecified),inactive: -0.878%
5,C#CCOCCOCCOCCNc1nc(N2CCN(C(=O)[C@H](CCCN=C(N)N)n3cc(C(N)[C@@H](C)CC)nn3)CC2)nc(N2CCN(C(=O)[C@H](CCCCN)n3cc([C@@H](N)[C@H](C)CC)nn3)CC2)n1 (stereo partly specified),active: 53.8%
6,O=C(COc1ccc(Cl)cc1Br)NC1CC1,inconclusive: 23.7%
7,CN(Cc1ccccc1)C(=O)c1[nH]cnc1C(=O)N[C@@H](CCCCNC(=O)OC(C)(C)C)C(=O)OC(C)(C)C,inactive: -5.54%
8,CCOC(=O)c1c(C)n(C)c2ccc(OCC(O)CNC(CC)CO)cc12 (stereo unspecified),inconclusive: 36.5%
9,Cc1nc2ccccc2n1CC(=O)NC1CCCC1,active: 51.3%
10,CCOC(=O)c1ccccc1NC(=S)N1CC(C)CC(C)C1 (stereo unspecified),inconclusive: 25.6%
11,CN(Cc1c(F)cccc1Cl)C(=O)c1ccc(NS(=O)(=O)c2ccc3[nH]c(=O)[nH]c3c2)cc1,inconclusive: 39.6%
12,O=C(OCc1ccccc1F)c1ccc2c(c1)-c1ccccc1C2=O,inactive: -7.13%
13,O=C1[C@H](O)[C@@H](O)C(=O)N1Cc1ccccc1,inconclusive: 30.7%
14,CCOc1cc(/C=C/C(=O)OCC(=O)NC2CCS(=O)(=O)C2)ccc1OCc1ccccc1 (stereo unspecified),inactive: 10.5%
15,CN(C)CCCN(C(=O)c1ccc(C(=O)c2ccccc2)cc1)c1nc2c(F)cccc2s1,inconclusive: 39.9%
16,O=C(NCc1ccccn1)c1nc(Cn2cc([N+](=O)[O-])cn2)no1,inactive: 3.97%
17,CSc1nc(=O)n2cccc(C)c2n1,inconclusive: 36.8%
18,Cc1ccc(S(=O)(=O)N(C(=O)c2ccncc2)c2ccc(OC(=O)c3ccncc3)c3ccccc23)c(C)c1,inconclusive: 50.3%
19,C[C@H](NC(=O)NCCc1ccccc1)C(=O)O,inconclusive: 35%
20,CCOC(=O)C1CCN(c2nc(N)c3c(N)nc(SCC(=O)O)cc3c2C#N)CC1,active: 68.3%
21,C=C(C)COc1ccc2c3c(c(=O)oc2c1OCC(=C)C)CCC3,inconclusive: 27.9%
22,Cc1cc(NC(=O)COC(=O)C2CC(=O)N(c3ccccc3)C2)no1 (stereo unspecified),inconclusive: 24.9%

row,SMILES,inhibition
1,O=C1c2ccccc2C(=O)C1c1ccc(O)cc1,inactive: 1.06%
2,COc1ccc(CC(=O)Nc2cccc(-c3ccc4nnc(C)n4n3)c2)cc1,inactive: 3.51%
3,Cc1ccc2nc(-c3cccc(Br)c3)cc(C(=O)NC3=NCCS3)c2c1,inactive: -11.1%
4,Cc1cc(C)n2nc(C(=O)OCC(=O)NCc3ccc(F)cc3)nc2n1,inactive: 1.06%
5,CCN(CC)S(=O)(=O)c1ccc(C(=O)Nc2cc(S(=O)(=O)N3CCOCC3)ccc2N2CCN(C)CC2)cc1,inconclusive: 47.8%
6,Nc1nnc(SC2CC(=O)N(c3ccccc3)C2=O)s1 (stereo unspecified),inconclusive: 56.8%
7,CC(C)C[C@@H]1CN=C(N)N1C[C@@H]1CCCN1C[C@H](C)N1C[C@@H](Cc2ccccc2)N(CCCC2CCCC2)C1=N,inconclusive: 43.2%
8,CC(=O)c1c(C)[nH]c(C(=O)Nc2ccccc2N2CCOCC2)c1C,inconclusive: 29%
9,Cc1ccc(NC(=O)CSC(N)=O)cc1Cl,inconclusive: 92.8%
10,O=S(=O)(Nc1ccc(O)c(Sc2nc3ccccc3s2)c1)c1cccc2ccccc12,active: 57.7%
11,COc1cc(NS(=O)(=O)c2ccc(N/C=C(\C#N)c3nc4ccccc4o3)cc2)nc(OC)n1,inconclusive: 84.3%
12,Cc1ccccc1NC(=S)N(CCCN1CCOCC1)Cc1ccccn1,inconclusive: 24%
13,CSc1nnc(N2C(=O)C(O)=C(C(=O)c3ccco3)C2c2ccccc2F)s1 (stereo unspecified),inconclusive: 30.9%
14,CCCCCCCCCCn1c2c(c(=N)c3c1CCC3)CCC2,active: 76.5%
15,Cc1cccc(CS(=O)(=O)c2ncc(Cl)c(C(=O)Nc3ccc(F)cc3)n2)c1,inconclusive: 31.1%
16,Cc1nn(-c2ccccc2)c(C)c1NC(=O)COC(=O)/C=C/c1ccccc1,inconclusive: 32.6%
17,O=C(c1cc(C(=O)N2CCOCC2)c2nc3ccccc3n2c1)c1cc(Cl)cc(Cl)c1O,inactive: 5.12%
18,COc1ccc(NC(=O)NCc2ccccn2)c(OC)c1,inactive: -11.9%
19,COc1ccccc1C1CC(c2cccs2)=Nc2ccccc2S1 (stereo unspecified),inconclusive: 53.7%
20,CCc1ccc(S(=O)(=O)c2nnn3c2nc(NCCNC(C)=O)c2ccccc23)cc1,inconclusive: 26.4%
21,COc1ccc(C=NNc2ccc(S(=O)(=O)Nc3ccccc3C(=O)O)cc2[N+](=O)[O-])c(OC)c1,inconclusive: 37.6%
22,Cc1ccc(C(=O)Cn2c(C)cc(C)c(C#N)c2=O)cc1,inactive: 3.19%

row,SMILES,inhibition
1,COc1cc(Br)c(C(C)NC(=O)c2cccc(Br)c2)cc1OC (stereo unspecified),inconclusive: 40.7%
2,CCOC(=O)c1cccc(Nc2ncnc3ccc(C)cc23)c1,inconclusive: 34%
3,CCN1/C(=C/c2ccc3ccccc3[n+]2CC)C=Cc2ccccc21,inconclusive: 59.3%
4,CCc1c(O)nc(SCC(=O)N2CCc3cc(OC)c(OC)cc3[C@@H]2C)[nH]c1=O,inconclusive: 46.8%
5,COc1ccccc1C1C2=C(N=c3s/c(=C/c4cccc(OCC(=O)O)c4)c(=O)n31)c1ccccc1CC2 (stereo unspecified),inconclusive: 90.7%
6,CC(C)(C)C(=O)NC(=S)NNC(=O)C(c1ccccc1)c1ccccc1,inactive: 5.01%
7,COc1ccc(C(=O)NC(NC(=S)Nc2ccc(S(N)(=O)=O)cc2)C(Cl)(Cl)Cl)cc1 (stereo unspecified),inconclusive: 36.9%
8,CCCCCCOc1ccc(/C(C)=N/NC2=NCCN2)cc1[N+](=O)[O-],inactive: 8.66%
9,CCSc1nnc(SCC(=O)NC2CCCCC2)s1,inactive: -2.79%
10,CC(=O)NC(NC(C)=O)c1ccc(Br)cc1,inconclusive: 29.5%
11,CCOC(=O)C1=C(CN2CCN(c3ccc(F)cc3)CC2)NC(=O)NC1c1cccs1 (stereo unspecified),inconclusive: 30.8%
12,Cc1ccc(C)c(NC(=O)CN(C)C(=O)c2ccc(-c3ccc(Cl)cc3)o2)c1,inconclusive: 23.9%
13,O=C(CSC1=NCCN1)Nc1cccc([N+](=O)[O-])c1,active: 113%
14,CN(C)S(=O)(=O)c1cccc(NC(=O)CSc2nc3c(cc2C#N)C(=O)CC(C)(C)C3)c1,inconclusive: 27.7%
15,COCc1cc(C)c(C#N)c(=S)[nH]1,active: 79.6%
16,CCC(C)(C(=O)NC1CCCCC1)N(C(=O)CC1NC(=O)NC1=O)c1c(C)n(C)n(-c2ccccc2)c1=O (stereo unspecified),inactive: 6.97%
17,CCN1CCN(c2cc(C)c3cc(NC(=O)c4ccc(Br)o4)ccc3n2)CC1,inconclusive: 36.5%
18,COc1cc(/C=N/NC(=O)c2ccc3c(c2)OCCO3)cc(Cl)c1O,inconclusive: 17.5%
19,On1ccccc1=S,inconclusive: 84.1%
20,Cc1noc(C)c1C(=O)NCCc1c(C)[nH]c2ccccc12,inactive: -2.8%
21,Cc1cc(/C=N/NC(=O)c2ccc(O)cc2)c(C)n1CC(C)C,inconclusive: 26.1%
22,Cc1ccc(NC(=O)C2CC(=O)N(c3ccccc3Cl)C2)cc1S(=O)(=O)N1CCOCC1 (stereo unspecified),inconclusive: 40.7%

row,SMILES,inhibition
1,O=C(Nc1ccc(Cl)cc1)Nc1ccccc1Sc1ncc([N+](=O)[O-])s1,inconclusive: 35.9%
2,CCCCCCCCCn1c2c(c(=N)c3c1CCC3)CCCC2,inconclusive: 64.8%
3,O=S(=O)(Cc1ccccc1)N(O)c1ccccc1,inactive: 0.779%
4,COc1ccc(CN2CCOCCOCCOCC2)cc1,inactive: -2.31%
5,CCN(CC)CCNc1ncnc2c1sc1nc(N3CCCC3)c3c(c12)CC(C)(C)OC3,inconclusive: 57.3%
6,Nc1cc(N)cc(-c2nc3ccccc3[nH]2)c1,inconclusive: 41.1%
7,CC(=O)Nc1ccc(S(=O)(=O)NC(C)C(=O)NC(C)c2ccccc2)cc1 (stereo unspecified),inconclusive: 43.7%
8,CN(C)C=NC1=NN(c2cccc(C(F)(F)F)c2)CC1,inactive: -1.76%
9,COc1cc(/C=C(\C#N)c2ccccn2)cc(OC)c1O,inactive: 12.4%
10,O=C(NCCN1CCCCC1)Nc1ccc([N+](=O)[O-])cc1,active: 51.2%
11,CC(=O)c1ccc(OCCCC(=O)Nc2ccc3c(c2)OCCO3)cc1,inactive: 9.38%
12,CC(=O)C1=C(S(=O)(=O)c2ccc(C)cc2)CS(=O)(=O)C1,inconclusive: 20.8%
13,COc1cc(C(=O)CCN2CCC(c3ccccc3)C2)cc(OC)c1OC (stereo unspecified),active: 94.7%
14,CCCCC(CC)c1nnc(NC(=O)c2cccs2)s1 (stereo unspecified),inconclusive: 32.5%
15,O=C(COC(=O)c1cn(-c2ccccc2)nc1-c1ccc(F)cc1)Nc1ncc(Cl)cc1Cl,inactive: -3.37%
16,O=C(CSc1nc2nc3c(cc2c(=O)n1-c1ccccc1)CCCC3)Nc1cccc2ccccc12,inactive: 3.09%
17,O=C(CCCN1C(=O)S/C(=C/C=C/c2ccccc2)C1=O)Nc1ccc(C(=O)O)cc1,inconclusive: 31.8%
18,COc1ccc(CCNC(=O)CN2C(=O)NC3(CCCCC3C)C2=O)cc1 (stereo unspecified),active: 51.1%
19,CCOc1ccc(CCNC(=O)COC(=O)Cc2ccc(F)cc2)cc1OCC,inconclusive: 44.6%
20,CCC1(c2ccccc2)NC(=O)N(CC(=O)N(C)Cc2c(F)cccc2Cl)C1=O (stereo unspecified),inconclusive: 40.9%

# Part of the list above, with bars between the fields:
row | SMILES | inhibition
20 | Cc1noc(C)c1C(=O)NCCc1c(C)[nH]c2ccccc12 | inactive: -2.8%
21 | Cc1cc(/C=N/NC(=O)c2ccc(O)cc2)c(C)n1CC(C)C | inconclusive: 26.1%
22 | Cc1ccc(NC(=O)C2CC(=O)N(c3ccccc3Cl)C2)cc1S(=O)(=O)N1CCOCC1 (stereo unspecified) | inconclusive: 40.7%
1 | O=C(Nc1ccc(Cl)cc1)Nc1ccccc1Sc1ncc([N+](=O)[O-])s1 | inconclusive: 35.9%
2 | CCCCCCCCCn1c2c(c(=N)c3c1CCC3)CCCC2 | inconclusive: 64.8%
3 | O=S(=O)(Cc1ccccc1)N(O)c1ccccc1 | inactive: 0.779%
4 | COc1ccc(CN2CCOCCOCCOCC2)cc1 | inactive: -2.31%
5 | CCN(CC)CCNc1ncnc2c1sc1nc(N3CCCC3)c3c(c12)CC(C)(C)OC3 | inconclusive: 57.3%
6 | Nc1cc(N)cc(-c2nc3ccccc3[nH]2)c1 | inconclusive: 41.1%
7 | CC(=O)Nc1ccc(S(=O)(=O)NC(C)C(=O)NC(C)c2ccccc2)cc1 (stereo unspecified) | inconclusive: 43.7%
8 | CN(C)C=NC1=NN(c2cccc(C(F)(F)F)c2)CC1 | inactive: -1.76%
9 | COc1cc(/C=C(\C#N)c2ccccn2)cc(OC)c1O | inactive: 12.4%
10 | O=C(NCCN1CCCCC1)Nc1ccc([N+](=O)[O-])cc1 | active: 51.2%
11 | CC(=O)c1ccc(OCCCC(=O)Nc2ccc3c(c2)OCCO3)cc1 | inactive: 9.38%
12 | CC(=O)C1=C(S(=O)(=O)c2ccc(C)cc2)CS(=O)(=O)C1 | inconclusive: 20.8%
13 | COc1cc(C(=O)CCN2CCC(c3ccccc3)C2)cc(OC)c1OC (stereo unspecified) | active: 94.7%
14 | CCCCC(CC)c1nnc(NC(=O)c2cccs2)s1 (stereo unspecified) | inconclusive: 32.5%
15 | O=C(COC(=O)c1cn(-c2ccccc2)nc1-c1ccc(F)cc1)Nc1ncc(Cl)cc1Cl | inactive: -3.37%
16 | O=C(CSc1nc2nc3c(cc2c(=O)n1-c1ccccc1)CCCC3)Nc1cccc2ccccc12 | inactive: 3.09%
17 | O=C(CCCN1C(=O)S/C(=C/C=C/c2ccccc2)C1=O)Nc1ccc(C(=O)O)cc1 | inconclusive: 31.8%
18 | COc1ccc(CCNC(=O)CN2C(=O)NC3(CCCCC3C)C2=O)cc1 (stereo unspecified) | active: 51.1%
19 | CCOc1ccc(CCNC(=O)COC(=O)Cc2ccc(F)cc2)cc1OCC | inconclusive: 44.6%
